Patent US20220411517A1
No constants are given. Whether binding was seen depends on the method and setting. Some results given as binding are weak or reduced against the parent protein; the word gives no strength.

Assays:
[1] = molecular target: hIL-1RAP(1-367)_F-chLys_Avi (human); assay: ELISA on human IL-1RAcP (AG-12210), IgG1f_AEASS titrated 0.007-200 nM, AP-coupled secondary antibody with AttoPhos, signal over background (S/BG)
[2] = molecular target: hIL-1RAP(1-367)_F-chLys_Avi (human); assay: ELISA binning; competitor: coated 1A05 FabCys-AviHis; 1.5 nM biotinylated human IL-1RAcP (AG-12210) pre-incubated with the titrated Fab; captured IL-1RAcP detected with streptavidin-AP
[3] = molecular target: hIL-1RAP(1-367)_F-chLys_Avi (human); assay: ELISA binning; competitor: coated CAN04 FabCys-AviHis; 1.5 nM biotinylated human IL-1RAcP (AG-12210) pre-incubated with the titrated Fab; captured IL-1RAcP detected with streptavidin-AP
[4] = molecular target: hIL-1RAP(1-367)_F-chLys_Avi (human); assay: ELISA binning; competitor: coated Y024148 FabCys-AviHis; 1.5 nM biotinylated human IL-1RAcP (AG-12210) pre-incubated with the titrated Fab; captured IL-1RAcP detected with streptavidin-AP
[5] = molecular target: hIL-1RAP(1-367)_F-chLys_Avi (human); assay: ELISA binning; competitor: coated Y024149 FabCys-AviHis (sheet title Y024149_FAB COATED); 1.5 nM biotinylated human IL-1RAcP (AG-12210) pre-incubated with the titrated Fab; captured IL-1RAcP detected with streptavidin-AP
[6] = molecular target: hIL-1RAP(1-367)_F-chLys_Avi (human); assay: ELISA binning; competitor: coated Y024084 FabCys-AviHis (sheet title Y024084_FAB COATED); 1.5 nM biotinylated human IL-1RAcP (AG-12210) pre-incubated with the titrated Fab; captured IL-1RAcP detected with streptavidin-AP

Binder | binding [1] | binding [2] | binding [3] | binding [4] | binding [5] | binding [6]
Y024148_h_IgG1f_AEASS (antibody, V domains shown) VH: EVQLVESGGGLVQPGGSLRLSCAASGGTIGGSAVHWVRQAPGKGLVWVSRILTYSSTTQYAESVKGRFTISRDNAKNTLYLQMNSLRAEDTAVYYCARGSSEYPKFDIWGQGTLVTVSS VL: DIQMTQSPSTLSASVGDRVTITCRASQSISSWLAWYQQKPGKAPKLLIYDASSLESGVPSRFSGSGSGTEFTLTISSLQPEDFATYYCHQLLIYPHTFGQGTKVEIKR | binds | – | – | – | – | –
Y024148_h_FabCys-AviH (Fab, V domains shown) VH: EVQLVESGGGLVQPGGSLRLSCAASGGTIGGSAVHWVRQAPGKGLVWVSRILTYSSTTQYAESVKGRFTISRDNAKNTLYLQMNSLRAEDTAVYYCARGSSEYPKFDIWGQGTLVTVSS VL: DIQMTQSPSTLSASVGDRVTITCRASQSISSWLAWYQQKPGKAPKLLIYDASSLESGVPSRFSGSGSGTEFTLTISSLQPEDFATYYCHQLLIYPHTFGQGTKVEIKR | – | binds | binds | binds | binds | binds
Y024149_h_FabCys-AviH (Fab, V domains shown) VH: EVQLVESGGGLVQPGGSLRLSCAASGGTFGGSAMHWVRQAPGKGLVWVSRILTYGGIATYAESVKGRFTISRDNAKNTLYLQMNSLRAEDTAVYYCARGSSEYPKFDIWGQGTLVTVSS VL: DIQMTQSPSTLSASVGDRVTITCRASQSISSWLAWYQQKPGKAPKLLIYDASSLESGVPSRFSGSGSGTEFTLTISSLQPEDFATYYCHQLLIYPHTFGQGTKVEIKR | – | binds | binds | binds | binds | binds
Y024149_h_IgG1f_AEASS (antibody, V domains shown) VH: EVQLVESGGGLVQPGGSLRLSCAASGGTFGGSAMHWVRQAPGKGLVWVSRILTYGGIATYAESVKGRFTISRDNAKNTLYLQMNSLRAEDTAVYYCARGSSEYPKFDIWGQGTLVTVSS VL: DIQMTQSPSTLSASVGDRVTITCRASQSISSWLAWYQQKPGKAPKLLIYDASSLESGVPSRFSGSGSGTEFTLTISSLQPEDFATYYCHQLLIYPHTFGQGTKVEIKR | binds | – | – | – | – | –
R001031 (CAN04) (antibody, human IgG1, kappa, V domains shown) VH: QVQLVQSGAEVKKPGSSVKVSCKASGYAFSSSWMNWVRQAPGQGLEWMGRIYPGDGNTHYAQKFQGRVTLTADKSTSTAYMELSSLRSEDTAVYYCGEGYLDPMDYWGQGTLVTVSS VL: DIQMTQSPSSLSASVGDRVTITCSASQGINNYLNWYQQKPGKAPKLLIHYTSGLHAGVPSRFSGSGSGTDYTLTISSLQPEDVATYYCQQYSILPWTFGGGTKVEIKR | binds | – | – | – | – | –
R001032 (1A05) (antibody, human IgG1, kappa, V domains shown) VH: LEQSGGGAEGGLVKPGGSLELCCKASGFSLSTSYWRCWVRQAPGKGLEWIGCIYAGSGDVTYYANWVNGRFTLSRDIDQSTGCLQLNSLTAADTAMYYCASGVGFGYFNLWGQGTLVTVSS VL: ALVMTQTPSPVSAAVGGTVTINCQASEDIYSNLAWFQQKPGQPPKLLIYDASTLASGVPSRFSGSGSGTEFTLTISGLQSDDAATYYCLGVYTHISADNAFGGGTEVVVKR | binds | – | – | – | – | –
